Earlier results as cited in patent US7294501B2, “Geldanamycin-producing strains, uses thereof and methods of producing same” (priority 2003, dated 2007).
At least one structure is not confirmed: it was looked up by name or label, or the drawing left a doubt.

Test system: S. scabies
Settings: Toussaint et al., 1997; Agbessi, 2002; cited from earlier work

COC1=C2C[C@@H](C)C[C@H](OC)[C@H](O)[C@@H](C)/C=C(\C)[C@H](OC(N)=O)[C@@H](OC)/C=C\C=C(/C)C(=O)NC(=CC1=O)C2=O [Geldanamycin]
activity against Gram-positive bacteria such as S. scabies: active
